The full ranking holds about 33,000 sequences; the median of “E-score (-0.5 to 0.5)” is about -0.015, and the highest 2% start at about 0.3. Some of the results follow.
Biological target: T1, Abf1 (UniProt P14164)
T1 sequence: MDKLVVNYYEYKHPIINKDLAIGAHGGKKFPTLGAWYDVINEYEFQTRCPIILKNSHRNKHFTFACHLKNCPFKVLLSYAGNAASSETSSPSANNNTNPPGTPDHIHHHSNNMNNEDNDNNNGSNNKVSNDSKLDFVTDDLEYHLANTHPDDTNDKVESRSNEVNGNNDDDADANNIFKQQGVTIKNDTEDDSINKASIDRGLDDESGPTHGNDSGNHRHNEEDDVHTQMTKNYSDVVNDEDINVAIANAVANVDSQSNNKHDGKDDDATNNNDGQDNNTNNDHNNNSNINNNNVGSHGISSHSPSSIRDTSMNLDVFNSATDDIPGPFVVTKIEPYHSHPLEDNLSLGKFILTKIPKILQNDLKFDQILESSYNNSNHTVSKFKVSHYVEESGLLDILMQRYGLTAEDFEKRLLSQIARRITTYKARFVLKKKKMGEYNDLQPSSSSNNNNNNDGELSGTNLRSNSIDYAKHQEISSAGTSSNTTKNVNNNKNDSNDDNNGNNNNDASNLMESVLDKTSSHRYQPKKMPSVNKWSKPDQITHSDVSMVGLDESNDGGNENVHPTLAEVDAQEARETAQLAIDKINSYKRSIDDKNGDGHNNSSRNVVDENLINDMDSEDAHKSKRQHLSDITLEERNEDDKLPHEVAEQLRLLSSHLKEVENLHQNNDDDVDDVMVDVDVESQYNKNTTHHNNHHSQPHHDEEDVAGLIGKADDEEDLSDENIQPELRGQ
Assay: PBM E-score (8-mer binding enrichment) (E-score (-0.5 to 0.5)); higher = stronger / more preferred TF binding
Conditions: protein concentration: 200 nM; construct: GST-full length
How it was run: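 GST-tagged yeast TFs (full-length or DNA-binding domain) were made by PURExpress in vitro transcription/translation and applied at about 100-200 nM to universal all-10-mer Agilent arrays. The arrays were made double-stranded by primer extension, on fresh or once-stripped slides. Bound protein was detected with fluorescent anti-GST, and scans were normalised with masliner. Each ungapped eight-base word, pooled with its reverse complement, received an E-score (modified Wilcoxon-Mann-Whitney statistic) from the Universal PBM Analysis Suite.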

Sequence	PBM E-score
GCTTAACA	-0.0819
GCGCCGGA	-0.165
CGGCGATC	0.0485
CCGGCAGA	-0.167
AAAGGTTC	-0.197
TCAGTGCA	-0.133
CAGCAGGA	-0.0545
AACCGGGA	-0.0161
GAACACAC	-0.136
CTTGGTCC	-0.211
CACAACAG	-0.303
AGAATACG	-0.00499
AAGGGAAG	0.0116
CAATGGTC	-0.0437
CAAATCCG	-0.161
AAGGTGTA	-0.0595
CACTGCCA	0.0191
GGGGGACC	-0.429
CGATCTAA	0.0449
AACCCAGT	-0.06
GCGACTAC	-0.134
ACAACTCC	0.0276
ACTGGCTG	0.00013
AAAGCATT	0.0497
CCATGCAA	0.196

Sequence	PBM E-score
AATGCTCC	-0.223
CAACCTAG	-0.0549
AGCCTGGG	-0.196
CAGTCCCA	-0.166
GTCGAAAA	0.107
ATAATGGC	0.0585
AGAAGTTC	0.03
CTGCTTCC	-0.261
CTATACGC	-0.0573
TGGCGACA	0.0957
AATTAACA	0.0377
TAAAACTA	0.0232
ATCCGGGG	0.00013
CTCGTTCA	0.111
TCAAGTAA	0.0816
CTTAAATC	0.221
GCGTTCAA	-0.0872
ATAAGCCG	-0.0988
ACGAAGTG	0.301
ATTTGTGG	0.165
ACAATTAT	0.242
ACCAGACT	-0.0471
CCTAAAAA	-0.0486
TGGCAAAA	0.0118
CCAGTTAC	-0.0955

Sequence	PBM E-score
ATCCCAGG	-0.13
GCCGTTAA	0.163
AAGAGGTC	-0.117
ATCAACTG	0.00191
ACAGCCTA	0.0227
GCATCCTA	0.0741
CAGGAGAC	-0.0274
CTTTGCAC	0.209
ACATAGCG	-0.0126
ATATAGTG	0.26
ACCGCACG	0.12
ACTCGCAC	-0.214
CCCCTATC	-0.125
GAAGAGCC	-0.0564
AGTCCGTA	0.175
GCCCCAAC	-0.0188
AGGTCATC	0.161
AATGTTCC	-0.00373
CCCGTCGG	-0.0638
CAATTGCG	-0.115
GTTCACTA	0.115
AGTATCTA	0.153
CCTTAGGC	-0.0403
AGTGTGCG	-0.077
GGATCTGA	-0.135

Sequence	PBM E-score
ATTCGTCA	0.164
ACCCTGAC	-0.178
ATGGTATC	0.109
GTTATTGA	0.152
CAATGGGA	-0.128
ACGATTCC	0.0784
ATGGTGTC	-0.0329
GGGAAGTA	-0.0781
TCCCCGAA	-0.215
GGTCCTAA	0.108
CGCCTAGA	-0.0173
CATAGGCA	-0.167
GACGCATC	0.2
GTCACTTA	0.355
ATGGGCCG	-0.0454
TTAATTAA	-0.0568
ACGACTCA	0.121
CAATCGCA	0.024
CCGCTGTA	-0.135
CGCCCACG	-0.0798
AATTTAGA	0.0649
GATTATTA	0.0366
CCGGGTCC	-0.221
TAATACAA	0.141
AAGATTAT	0.0293

Sequence	PBM E-score
TCCCTTAA	-0.027
GTTGCAGA	0.084
TTCTACAA	0.0585
GAATGGAC	0.0322
CCGTATTA	0.206
AAATATGC	0.0361
TAGGTATA	0.0595
TCCGCCCA	-0.158
GGTGGCTA	-0.158
AAATCCCA	0.0425
CCAACCGC	0.00355
ATATCTGA	0.105
ACCATAAG	-0.0923
AGACGACA	0.264
CATTCCCA	-0.0683
ATGCCGCA	0.0489
ACCTGGAA	0.0807
GAGATTGA	-0.175
TTCACAAA	0.00384
CAGGGATA	0.0311
CAGACGTA	-0.0804
GACCAAGA	-0.144
ACGCCCCC	-0.311
CGCACGTA	0.0987
GCTCATCC	-0.138

Sequence	PBM E-score
CCCAGCTA	0.0223
AAACCGCC	-0.217
GGGCGTAC	0.0418
GAATATTA	0.146
TTACCTAA	0.0912
GTTGAAGA	0.0712
CCAATGCG	-0.177
ACCATTTA	0.0343
CTGCGGTA	-0.0796
ACCGCTGG	-0.192
CAATGCGA	-0.137
CGCCCAAC	-0.0175
AGGGACAG	-0.3
GAACTCGC	0.0562
TCTCAACA	0.105
AGAGTAAT	0.0837
TCATTGCA	0.063
AATTAGCG	0.0868
AGAACGTA	0.0331
ACTTCCAG	-0.132
AGTAGCCG	-0.0725
CCCGCGCC	-0.134
CTAGCTCC	-0.132
AGGTCCGA	-0.0209
GAAGAGGA	-0.232

Sequence	PBM E-score
ACTCTTCT	0.0673
CCCTCCCC	-0.291
AACAATGA	0.221
AATGTCTC	0.0395
ATTCTAAG	-0.0161
CCACCCCG	-0.184
CCTCAAAC	-0.0387
AGGGCCCT	-0.233
ATCTGCTC	-0.0794
AAACACAT	-0.0163
TACTGCTA	-0.221
AAATGACT	0.274
GCAGGTTA	0.0168
ACTGCGGG	0.0139
ATCAGACG	0.0307
CCCAATAA	-0.052
GCGTTGAC	0.0935
ACGAGGGG	-0.0831
ATCCTCGG	-0.00426
AGTCGTAC	0.169
TGGAGCAA	-0.0554
AGAATAGC	0.0179

From the supplement of paper PMC3334620
